Measurements reported in PubChem BioAssay AID504793 (Drosophila RNAi Screening Center, 2011).

- Aim: 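Knock-downs allowing continued mitosis even though DNA is damaged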 (primary screen)
- Cells: Drosophila S2R+ cells
- Knock-down reagent: long dsRNA against Drosophila genes, about 0.25 µg dsRNA per well
- Timing: 4 days of dsRNA, then 4 hours of drug before read-out
- Treatment: doxorubicin 0.5 µM for 4 hours to cause double-strand breaks, in cells also given a low, harmless dose of dsRNA against nbs to sensitise the assay
- Measured: 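Mitotic index as the number of phospho-histone H3-positive cells in each well following doxorubicin, given as raw counts without normalisation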
- Reading the numbers: mitotic cells: higher = more cells in mitosis, weaker G2 arrest
- Hit rule: 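Genes are called active only when high mitotic counts were reproduced with independent dsRNAs and mitosis was checked for delay without damage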
- Meaning of the calls: active = confirmed in follow-up tests; inactive = not confirmed
The screen tested about 23,000 reagents; shown is a random part of those that have a named target and a result. Of all reagents, 62 (0.27%) are marked active. 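Calls come from follow-up tests whose scores are not deposited, so confirmed genes may have low counts here; counts are not normalised per plate.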 Raw values are not corrected between plates. Names joined by + are all predicted targets of the reagent.

gene knocked down | amplicon | mitotic cells, replicate 1 | activity call
CG7352 (GeneID 40997) | DRSC16233 | 7 | inactive
CG15554 (GeneID 43680) | DRSC15092 | 10 | inactive
Ppt1 (GeneID 31805) | DRSC17806 | 5 | inactive
CG32006 (GeneID 317817) | DRSC21768 | 6 | inactive
CG32006 (GeneID 317817) | DRSC28120 | 4 | inactive
Mgtor (GeneID 36264) | DRSC05958 | 5 | inactive
CG13323 + CG13324 | DRSC29000 | 4 | inactive
lmd (GeneID 42717) | DRSC15618 | 6 | inactive
lmd (GeneID 42717) | DRSC29194 | 3 | inactive
CG1316 (GeneID 38526) | DRSC08304 | 8 | inactive
RNASEK (GeneID 3355016) | DRSC21641 | 12 | inactive
CG4829 (GeneID 32672) | DRSC19920 | 5 | inactive
CG12608 (GeneID 32463) | DRSC19472 | 2 | inactive
Pcyt1 (GeneID 117353) | DRSC08157 | 10 | inactive
Pcyt1 (GeneID 117353) | DRSC27869 | 4 | inactive
otk2 (GeneID 36284) | DRSC07303 | 6 | inactive
CG17221 (GeneID 33521) | DRSC00487 | 6 | inactive
CG17221 (GeneID 33521) | DRSC27437 | 2 | inactive
CG12831 (GeneID 35631) | DRSC06179 | 6 | inactive
Naa20B (GeneID 318982) | DRSC21442 | 6 | inactive
Naa20B (GeneID 318982) | DRSC27158 | 5 | inactive
Cdc7 (GeneID 31598) | DRSC18429 | 18 | inactive
Cdc7 (GeneID 31598) | DRSC27819 | 7 | inactive
CG8087 (GeneID 41764) | DRSC16375 | 3 | inactive
CG8087 (GeneID 41764) | DRSC26924 | 13 | inactive
stwl (GeneID 39581) | DRSC11400 | 14 | inactive
stwl (GeneID 39581) | DRSC23913 | 12 | inactive
CG14194 (GeneID 32908) | DRSC19549 | 5 | inactive
CG12081 (GeneID 31799) | DRSC17802 | 6 | inactive
betaNACtes6 + betaNACtes3 | DRSC27147 | 8 | inactive
rux (GeneID 31535) | DRSC18829 | 2 | inactive
glob1 (GeneID 41930) | DRSC16959 | 7 | inactive
mst (GeneID 33119) | DRSC20582 | 4 | inactive
wry (GeneID 33361) | DRSC00352 | 3 | inactive
wry (GeneID 33361) | DRSC00456 | 6 | inactive
wry (GeneID 33361) | DRSC22414 | 9 | inactive
cuff (GeneID 36269) | DRSC06315 | 3 | inactive
CG18662 (GeneID 50437) | DRSC02691 | 12 | inactive
CG14220 (GeneID 32954) | DRSC19577 | 6 | inactive
CG14220 (GeneID 32954) | DRSC26345 | 6 | inactive
ova (GeneID 34362) | DRSC02879 | 7 | inactive
fd59A (GeneID 37631) | DRSC04685 | 3 | inactive
fd59A (GeneID 37631) | DRSC25524 | 7 | inactive
GABA-B-R2 (GeneID 42561) | DRSC14134 | 6 | inactive
GABA-B-R2 (GeneID 42561) | DRSC28127 | 1 | inactive
Gtpx (GeneID 38413) | DRSC08221 | 5 | inactive
Gtpx (GeneID 38413) | DRSC22117 | 11 | inactive
CG2127 (GeneID 35811) | DRSC06821 | 5 | inactive
CR16735 (GeneID 10178810) | DRSC15144 | 6 | inactive
CG10969 (GeneID 39451) | DRSC09811 | 6 | inactive
CG10969 (GeneID 39451) | DRSC29502 | 8 | inactive
CG13024 (GeneID 39880) | DRSC09904 | 5 | inactive
CG13024 (GeneID 39880) | DRSC29921 | 2 | inactive
rha (GeneID 43071) | DRSC17044 | 6 | inactive
fry (GeneID 39122) | DRSC08993 | 4 | inactive
fry (GeneID 39122) | DRSC10172 | 10 | inactive
fry (GeneID 39122) | DRSC10709 | 9 | inactive
fry (GeneID 39122) | DRSC10712 | 4 | inactive
Sem1 (GeneID 50428) | DRSC02282 | 7 | inactive
Sem1 (GeneID 50428) | DRSC30061 | – | inactive
ppk24 (GeneID 43702) | DRSC15093 | 11 | inactive
CG3225 (GeneID 33680) | DRSC00578 | 4 | inactive
CG3225 (GeneID 33680) | DRSC30078 | 5 | inactive
CG42238 (GeneID 7354398) | DRSC03180 | 11 | inactive
wntD (GeneID 41633) | DRSC16423 | 8 | inactive
wntD (GeneID 41633) | DRSC28538 | 7 | inactive
bc10 (GeneID 38628) | DRSC11326 | 7 | inactive
l(2)k14505 (GeneID 35399) | DRSC03106 | 7 | inactive
CG14434 (GeneID 31632) | DRSC17927 | 7 | inactive
CG18336 (GeneID 50236) | DRSC06334 | 2 | inactive

Copied from the list:
CG32006 (GeneID 317817) [DRSC21768], activity call → inactive
Under “activity call”, CG18336 (GeneID 50236) [DRSC06334] reads inactive
Value for Mgtor (GeneID 36264) [DRSC05958] under “activity call”: inactive
Value of Ppt1 (GeneID 31805) [DRSC17806] in “activity call”: inactive
Entry for CG4829 (GeneID 32672) [DRSC19920] in “activity call”: inactive
For “mitotic cells, replicate 1”, CG17221 (GeneID 33521) [DRSC00487] reads 6

The list goes on.
gene knocked down | amplicon | mitotic cells, replicate 1 | activity call
Btnd (GeneID 31552) | DRSC18316 | 13 | inactive
Btnd (GeneID 31552) | DRSC24718 | 5 | inactive
sncRNA:430e + His2A:CG33859 + His2A:CG33817 + 37 more | DRSC21264 | 19 | inactive
Mst33A (GeneID 34578) | DRSC03371 | 6 | inactive
Mst33A (GeneID 34578) | DRSC27156 | 3 | inactive
Bub1 (GeneID 33758) | DRSC23158 | 13 | inactive
Bub1 (GeneID 33758) | DRSC27436 | 2 | inactive
GstT4 (GeneID 32299) | DRSC19757 | 3 | inactive
Cog2 (GeneID 41870) | DRSC16987 | 5 | inactive
croc (GeneID 40374) | DRSC11884 | 1 | inactive
croc (GeneID 40374) | DRSC29346 | 7 | inactive
mod(mdg4) + pre-mod(mdg4)-U | DRSC13476 | 11 | inactive
CG12491 + CG34105 | DRSC04008 | 5 | inactive
CG12491 + CG34105 | DRSC04124 | 7 | inactive
CG12491 + CG34105 | DRSC26465 | 8 | inactive
CG5539 (GeneID 37766) | DRSC04510 | 5 | inactive
Mcm10 (GeneID 35390) | DRSC03162 | 10 | inactive
Mcm10 (GeneID 35390) | DRSC27996 | 7 | inactive
AOX4 (GeneID 41897) | DRSC15337 | 3 | inactive
AOX4 (GeneID 41897) | DRSC26337 | 4 | inactive
CG14105 (GeneID 39507) | DRSC10107 | 3 | inactive
CG14329 (GeneID 42116) | DRSC14808 | 15 | inactive
CG32246 (GeneID 317936) | DRSC08115 | 10 | inactive
CG32246 (GeneID 317936) | DRSC24361 | 5 | inactive
bur (GeneID 45830) | DRSC03163 | 3 | inactive
Ak2 (GeneID 37834) | DRSC04043 | 9 | inactive
CG2147 (GeneID 31759) | DRSC18211 | 8 | inactive
RpL10Aa (GeneID 41811) | DRSC15518 | 11 | inactive
Gat (GeneID 43805) | DRSC17144 | 12 | inactive
CG1637 (GeneID 32019) | DRSC18865 | 4 | inactive
CG1637 (GeneID 32019) | DRSC19748 | 7 | inactive
CG1637 (GeneID 32019) | DRSC19749 | 6 | inactive
CG1637 (GeneID 32019) | DRSC29080 | 4 | inactive
CG31959 (retired record) (GeneID 326180) | DRSC22912 | 9 | inactive
CG12773 (GeneID 31082) | DRSC18580 | 3 | inactive
CG12773 (GeneID 31082) | DRSC24900 | 1 | inactive
CG15011 (GeneID 38518) | DRSC08464 | 8 | inactive
niki (GeneID 42959) | DRSC14285 | 9 | inactive
CG13476 (GeneID 39602) | DRSC10019 | 4 | inactive
Sh3beta (GeneID 38820) | DRSC11001 | 4 | inactive
Sh3beta (GeneID 38820) | DRSC22053 | 8 | inactive
Sh3beta (GeneID 38820) | DRSC27871 | 8 | inactive
CG12860 (GeneID 36629) | DRSC06200 | 9 | inactive
CG12860 (GeneID 36629) | DRSC26264 | 8 | inactive
Cyp313a1 (GeneID 41759) | DRSC16624 | 4 | inactive
Cyp313a1 (GeneID 41759) | DRSC28812 | 5 | inactive
CG4328 (GeneID 39405) | DRSC23146 | 14 | inactive
CG4328 (GeneID 39405) | DRSC28606 | 5 | inactive
Iru (GeneID 41080) | DRSC14457 | 8 | inactive
mRpL10 (GeneID 33182) | DRSC00312 | 8 | inactive
Ugalt (GeneID 31255) | DRSC18467 | 8 | inactive
CG12177 (GeneID 32326) | DRSC19437 | 9 | inactive
CG12177 (GeneID 32326) | DRSC21524 | 5 | inactive
CG12177 (GeneID 32326) | DRSC29474 | 7 | inactive
Hers (GeneID 33000) | DRSC19429 | 3 | inactive
Hers (GeneID 33000) | DRSC19676 | 4 | inactive
Hers (GeneID 33000) | DRSC24330 | 6 | inactive
CG7276 (GeneID 39668) | DRSC10797 | 3 | inactive
CG3919 (GeneID 39582) | DRSC10389 | 7 | inactive
CG14089 (GeneID 40101) | DRSC10093 | 1 | inactive
CG14089 (GeneID 40101) | DRSC24848 | 6 | inactive
CG42502 + CG10570 | DRSC02071 | 6 | inactive
CG18628 (GeneID 39205) | DRSC10328 | 5 | inactive
Ubc87F (GeneID 41682) | DRSC16513 | 2 | inactive
Ubc87F (GeneID 41682) | DRSC29083 | 3 | inactive
Elp1 (GeneID 41399) | DRSC14250 | 3 | inactive
Pex13 (GeneID 36462) | DRSC06877 | 5 | inactive
Ugt49B2 (GeneID 42538) | DRSC16049 | 10 | inactive
Ugt49B2 (GeneID 42538) | DRSC24548 | 11 | inactive
Dhps (GeneID 38917) | DRSC10948 | 10 | inactive
